PubChem BioAssay AID652272 – Drosophila RNAi Screening Center | 2013

- Screen: 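Genome-wide knock-down search for components of Hedgehog signalling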 (primary screen)
- Cells: Drosophila clone 8 (Cl8) cells
- Reagents: long dsRNA against Drosophila genes
- Measurement: 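Plate reader light from a firefly reporter under a ptc promoter fragment that responds to Hedgehog, with Renilla light as transfection reference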
- Reading the numbers: firefly Hh reporter signal: higher = more ptc reporter light; Renilla reference signal: higher = more Renilla control light
- Hit rule: 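Called a hit if the two-replicate mean z-score lies below -2 or above +3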
- Calls: active = hit: reporter lowered or raised; inactive = not a hit
The screen tested about 21,000 reagents; shown is an unselected part of those that have a named target and a result. Over the whole deposit, 503 (2.4%) were called active. 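Raw plate light values, not normalised; calls rest on replicate z-scores that were not deposited; hits include reporter decreases as well as increases.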 Names joined by + are all predicted targets of the reagent. Not given: the amount of reagent, the time to read-out.

"firefly Hh reporter signal, replicate 1","firefly Hh reporter signal, replicate 2","firefly Hh reporter signal, replicate 3","Renilla reference signal, replicate 1","Renilla reference signal, replicate 2",call,gene,amplicon
1.78e5,1.94e5,,5658,6028,inactive,CG15561,DRSC15100
1.65e5,87338,,3697,3237,inactive,myo,DRSC17174
88448,87529,,9555,6729,inactive,Cpr65Av,DRSC09727
64583,66359,,1724,1836,inactive,rec,DRSC14998
69072,88852,,1186,2320,inactive,rec,DRSC15656
1.93e5,1.23e5,,6389,5042,inactive,Ns4,DRSC03199
1.16e5,66123,,5463,3026,inactive,CG31198,DRSC15891
1.24e5,81812,,2913,2282,inactive,Hsp60A,DRSC20254
52610,1.69e5,,1254,7268,inactive,CG14797,DRSC17955
84519,44880,,3560,2122,inactive,AspRS,DRSC05914
1.56e5,1.01e5,,5249,2784,inactive,Diedel,DRSC14317
63173,1.40e5,,2259,4185,inactive,GCC88,DRSC14264
72868,96172,,1964,2698,inactive,CG5276,DRSC15759
73216,47521,,2528,1652,inactive,IntS9,DRSC10493
63920,1.62e5,,1815,9061,inactive,CG18258,DRSC19798
89148,49835,,2538,4485,inactive,Hsp60D,DRSC02543
96416,92256,,3968,3456,inactive,CG1271,DRSC08290
92278,83450,,4013,3461,inactive,corn,DRSC11021
73863,58968,,2068,4669,inactive,CG18661,DRSC02690
96003,72296,,2137,1792,inactive,robo3,DRSC00374
96588,48395,,2438,1152,inactive,robo3,DRSC00375
1.30e5,80067,,2896,1872,inactive,robo3,DRSC00684
78038,60432,,2098,4812,inactive,CG12923,DRSC06237
5.57e5,2.03e5,,29881,3549,inactive,Ir10a,DRSC18891
64937,1.67e5,,2722,6210,inactive,Ir10a,DRSC19478
61580,1.93e5,,2413,6929,inactive,Ir10a,DRSC19479
88825,40233,,2493,3788,inactive,Lectin-galC1,DRSC03362
5.65e5,81376,,26336,2640,inactive,CG5697,DRSC15858
68067,37014,,2824,1635,inactive,CG3868,DRSC10380
58100,35392,,1204,2741,inactive,CG18787 + CG18789,DRSC02698
64677,1.98e5,,2291,9049,inactive,kl-2,DRSC21136
1.44e5,99153,,6176,2650,inactive,CG15528,DRSC15065
41834,73248,,1545,2603,inactive,mura,DRSC16483
22630,16545,,1089,709,inactive,mura,DRSC16484
51308,1.38e5,,1026,4908,inactive,CanB,DRSC18449
77132,33978,,2842,1334,inactive,MFS12,DRSC07268
78931,93724,,3276,2773,inactive,Tailor,DRSC12526
52512,1.33e5,,1235,6262,inactive,Amun,DRSC19847
79113,57313,,5101,3142,inactive,CG32344,DRSC08578
1.16e5,73786,,4592,1801,inactive,Rev1,DRSC08264
5.38e5,74550,,27319,2468,inactive,Clbn,DRSC14404
1.21e5,92293,,2457,1986,inactive,CG3528,DRSC00611
4.58e5,1.97e5,,26761,3707,inactive,ttk,DRSC14078
85833,1.66e5,,1677,5414,inactive,ttk,DRSC17091
1.46e5,79600,,3441,5835,inactive,CG15236,DRSC04970
1.29e5,1.08e5,,3538,2694,inactive,Nek2,DRSC18124
54261,62282,,754,3884,inactive,sli,DRSC07684
67717,1.43e5,,6306,10512,inactive,Gyg,DRSC03850
97328,76864,,2405,6329,inactive,Gyg,DRSC04556
4.00e5,55468,,28056,2088,inactive,Cbp20,DRSC16601
7.90e5,7.88e5,1.81e5,40579,4328,inactive,wda,DRSC15579
1.20e5,6.65e5,78352,3219,39405,inactive,CG15147,DRSC02447
1.02e5,49286,,2579,4501,inactive,CG15147,DRSC02448
87762,85281,,2107,2594,inactive,RYa-R,DRSC16757
93019,74048,,2887,3175,inactive,CG9328,DRSC03203
95561,1.04e5,,3363,2769,inactive,fbl,DRSC11886
1.29e5,1.39e5,,3066,3458,inactive,CG2865,DRSC18527
3.50e5,46116,,2474,2474,inactive,CG2865,DRSC18528
1.19e5,1.26e5,,3037,3456,inactive,CG2924,DRSC18525
5.25e5,77484,,27373,2512,inactive,CG17786,DRSC15270
59417,1.50e5,,1440,6641,inactive,ey,DRSC17173
80762,52803,,4077,2437,inactive,CG14767,DRSC06500
96482,1.30e5,,1129,2969,inactive,rha,DRSC17044
84763,52806,,4849,1448,inactive,CG1394,DRSC19539
1.41e5,85522,,6022,3848,inactive,Gel,DRSC12350
96754,44248,,3939,2048,inactive,tipE,DRSC08738
1.14e5,2.11e5,,3018,10070,inactive,lncRNA:CR9284,DRSC03899
87684,65094,,3213,2568,inactive,lncRNA:CR9284,DRSC04536
98662,1.18e5,,5393,6272,inactive,Ars2,DRSC04893
1.25e5,79211,,4578,3024,inactive,Sbf,DRSC16852
29675,47401,32432,6185,4245,active,CG42268,DRSC10171
30151,44612,53602,3616,3639,inactive,CG42268,DRSC10702
76428,60870,,2992,2304,inactive,dare,DRSC07602
